Measured values published in publication doi:10.1101/2024.07.31.606047.

By UniProt entry, the sequences of proteins in these tests, tags left out.
UniProt Q8N6T7, whole entry: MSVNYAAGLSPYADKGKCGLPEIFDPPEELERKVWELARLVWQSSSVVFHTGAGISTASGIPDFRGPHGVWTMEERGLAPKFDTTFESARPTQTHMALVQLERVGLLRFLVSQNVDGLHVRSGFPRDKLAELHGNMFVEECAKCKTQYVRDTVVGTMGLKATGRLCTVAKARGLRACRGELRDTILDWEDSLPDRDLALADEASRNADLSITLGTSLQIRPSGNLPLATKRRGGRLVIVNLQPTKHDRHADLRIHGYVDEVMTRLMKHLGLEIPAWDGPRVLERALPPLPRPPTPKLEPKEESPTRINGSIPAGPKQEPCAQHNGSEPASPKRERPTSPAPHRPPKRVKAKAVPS

Target: SIRT6-WT (UniProt Q8N6T7)
Test: EMSA
Details: 50 nM DNA, 2 mM MgCl2; residues 1-355

**Q.** Does “CTACTGGTACGGCAGACAGGATGTATATATCTGACACGTGCCTGGAGACTAGGGAGTAATCCCCTTGGCGGTTAAAACGCGGGGGACAGCGCGTACGTGCGTTTAAGCGGTGCTAGAGCTGTCTACGACCAATTGAGCGGCCTCGGCACCGGGATTCTCCAGTATTCGAGGCCGTTC (double strand) [ds601 DNA]” bind?
**A.** binds

The exact form of at least one protein or probe is not confirmed. At least one verdict was read from the data and is not stated in words by the source.
